Values joined by “and” are separate entries in the source; they are usually repeats but may differ in a detail not shown here. Equal entries are not always repeated.

This series in a line: GC-MS (SIM) quantification of substances in packaging migrates. The following applies: 60°C, 10 days.

In the case of `CC(C)(C)c1ccc(O)c(C(C)(C)C)c1` [2,4-di-tert-butylphenol], the Concentration in migrate (migrate of sample PP 2, 95% EtOH) is 0.11 mg/L and 0.11 ± 0.03 mg/L. The molecule `CCCCC(CC)COC(=O)CCCCC(=O)OCC(CC)CCCC` (centres unmarked) [diethylhexyladipate (DEHA), diethylhexyladipate] gave a Concentration in migrate (migrate of sample CF 1, 95% EtOH) of 1.2 ± 0.4 mg/L.
